In the supplement of paper PMC10849652:
The list shows a part of the results.

The chains behind the UniProt entries cited, without tags or fusion partners. Where a name states a change or a piece, a line headed by the entry shows the natural chain unless it says otherwise.
UniProt Q09028, whole entry, looked up: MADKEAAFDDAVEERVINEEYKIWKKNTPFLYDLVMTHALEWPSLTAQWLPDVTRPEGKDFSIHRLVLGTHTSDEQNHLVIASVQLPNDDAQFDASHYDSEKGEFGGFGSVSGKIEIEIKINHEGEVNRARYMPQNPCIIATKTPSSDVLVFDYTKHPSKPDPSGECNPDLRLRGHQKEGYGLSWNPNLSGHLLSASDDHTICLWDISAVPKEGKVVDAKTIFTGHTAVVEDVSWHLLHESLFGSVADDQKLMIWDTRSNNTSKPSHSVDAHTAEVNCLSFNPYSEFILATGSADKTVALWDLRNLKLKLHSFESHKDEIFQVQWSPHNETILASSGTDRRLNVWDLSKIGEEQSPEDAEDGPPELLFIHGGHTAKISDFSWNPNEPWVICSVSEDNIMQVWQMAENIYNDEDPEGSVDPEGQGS
UniProt Q96EV2: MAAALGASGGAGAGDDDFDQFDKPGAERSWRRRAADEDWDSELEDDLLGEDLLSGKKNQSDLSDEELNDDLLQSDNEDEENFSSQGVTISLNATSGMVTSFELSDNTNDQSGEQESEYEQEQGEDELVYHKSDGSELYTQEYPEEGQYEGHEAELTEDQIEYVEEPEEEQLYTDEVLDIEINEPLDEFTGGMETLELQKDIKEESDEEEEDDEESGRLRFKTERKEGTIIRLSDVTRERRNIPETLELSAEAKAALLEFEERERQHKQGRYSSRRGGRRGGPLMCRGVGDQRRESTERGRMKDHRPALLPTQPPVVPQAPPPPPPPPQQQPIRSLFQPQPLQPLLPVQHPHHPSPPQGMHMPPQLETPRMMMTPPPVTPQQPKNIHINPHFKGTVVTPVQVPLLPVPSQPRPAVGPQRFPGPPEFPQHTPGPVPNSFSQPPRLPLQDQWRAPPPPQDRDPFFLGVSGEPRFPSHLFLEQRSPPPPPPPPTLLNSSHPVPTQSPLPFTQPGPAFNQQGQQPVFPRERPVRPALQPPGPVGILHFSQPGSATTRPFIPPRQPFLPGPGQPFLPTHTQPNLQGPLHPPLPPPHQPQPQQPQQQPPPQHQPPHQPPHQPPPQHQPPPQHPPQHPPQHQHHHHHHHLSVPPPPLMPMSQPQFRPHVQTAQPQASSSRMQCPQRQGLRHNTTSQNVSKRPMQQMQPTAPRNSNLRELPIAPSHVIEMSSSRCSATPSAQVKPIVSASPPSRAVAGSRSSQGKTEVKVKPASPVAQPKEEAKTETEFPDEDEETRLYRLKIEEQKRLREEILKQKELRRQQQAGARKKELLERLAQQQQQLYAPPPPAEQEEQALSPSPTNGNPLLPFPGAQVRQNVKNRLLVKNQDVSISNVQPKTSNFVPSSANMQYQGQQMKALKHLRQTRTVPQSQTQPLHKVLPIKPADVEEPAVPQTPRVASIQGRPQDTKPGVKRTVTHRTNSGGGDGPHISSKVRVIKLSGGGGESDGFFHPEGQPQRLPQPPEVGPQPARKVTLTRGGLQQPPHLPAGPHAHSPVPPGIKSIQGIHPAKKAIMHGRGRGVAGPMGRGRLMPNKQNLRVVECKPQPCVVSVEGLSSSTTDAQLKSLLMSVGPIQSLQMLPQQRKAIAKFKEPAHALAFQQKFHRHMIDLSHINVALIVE
UniProt Q9NW13: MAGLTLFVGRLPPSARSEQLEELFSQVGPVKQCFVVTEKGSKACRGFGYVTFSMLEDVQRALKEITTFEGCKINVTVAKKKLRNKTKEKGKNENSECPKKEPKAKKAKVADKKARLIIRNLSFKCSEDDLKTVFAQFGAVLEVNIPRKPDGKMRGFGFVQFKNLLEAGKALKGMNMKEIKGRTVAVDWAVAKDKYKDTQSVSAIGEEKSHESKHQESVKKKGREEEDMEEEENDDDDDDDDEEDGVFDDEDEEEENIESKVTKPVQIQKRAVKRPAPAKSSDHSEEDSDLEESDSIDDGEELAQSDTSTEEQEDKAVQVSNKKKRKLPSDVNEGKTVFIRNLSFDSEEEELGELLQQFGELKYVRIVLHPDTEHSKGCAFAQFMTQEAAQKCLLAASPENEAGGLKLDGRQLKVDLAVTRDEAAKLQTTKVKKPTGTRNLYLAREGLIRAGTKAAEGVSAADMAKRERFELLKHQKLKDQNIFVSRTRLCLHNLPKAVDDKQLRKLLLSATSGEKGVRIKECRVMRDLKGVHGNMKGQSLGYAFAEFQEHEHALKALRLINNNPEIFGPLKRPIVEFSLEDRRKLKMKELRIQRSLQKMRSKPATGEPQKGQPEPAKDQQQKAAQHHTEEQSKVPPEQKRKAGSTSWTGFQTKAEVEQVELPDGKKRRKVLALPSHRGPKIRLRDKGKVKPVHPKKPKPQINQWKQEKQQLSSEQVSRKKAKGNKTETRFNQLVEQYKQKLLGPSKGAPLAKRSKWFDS
UniProt Q6JBY9, whole entry, looked up: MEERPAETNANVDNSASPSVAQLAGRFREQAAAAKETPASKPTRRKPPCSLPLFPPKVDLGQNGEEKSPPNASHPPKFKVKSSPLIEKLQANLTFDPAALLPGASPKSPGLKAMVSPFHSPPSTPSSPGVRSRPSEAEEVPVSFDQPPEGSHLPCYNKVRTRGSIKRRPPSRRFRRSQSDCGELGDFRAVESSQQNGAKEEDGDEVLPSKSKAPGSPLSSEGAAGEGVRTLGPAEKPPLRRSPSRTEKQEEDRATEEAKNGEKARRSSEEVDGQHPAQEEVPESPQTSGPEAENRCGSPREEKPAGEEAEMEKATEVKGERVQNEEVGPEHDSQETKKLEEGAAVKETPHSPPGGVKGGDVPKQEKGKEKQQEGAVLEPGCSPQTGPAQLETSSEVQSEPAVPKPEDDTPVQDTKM
UniProt Q14498: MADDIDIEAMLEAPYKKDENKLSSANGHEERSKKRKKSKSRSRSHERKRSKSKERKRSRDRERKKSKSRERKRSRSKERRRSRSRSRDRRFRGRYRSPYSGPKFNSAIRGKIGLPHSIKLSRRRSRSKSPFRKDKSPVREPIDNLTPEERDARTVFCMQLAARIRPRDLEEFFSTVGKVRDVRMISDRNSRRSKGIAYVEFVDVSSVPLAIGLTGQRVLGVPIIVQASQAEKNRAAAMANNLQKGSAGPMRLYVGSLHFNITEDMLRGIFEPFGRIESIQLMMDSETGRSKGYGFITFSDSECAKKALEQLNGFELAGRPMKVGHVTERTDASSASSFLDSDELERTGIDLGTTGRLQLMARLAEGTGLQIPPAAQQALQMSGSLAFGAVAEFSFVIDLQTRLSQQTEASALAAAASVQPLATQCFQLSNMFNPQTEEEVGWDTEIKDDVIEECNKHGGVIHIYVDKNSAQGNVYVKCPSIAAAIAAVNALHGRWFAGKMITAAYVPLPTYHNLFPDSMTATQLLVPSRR
UniProt Q96AA3: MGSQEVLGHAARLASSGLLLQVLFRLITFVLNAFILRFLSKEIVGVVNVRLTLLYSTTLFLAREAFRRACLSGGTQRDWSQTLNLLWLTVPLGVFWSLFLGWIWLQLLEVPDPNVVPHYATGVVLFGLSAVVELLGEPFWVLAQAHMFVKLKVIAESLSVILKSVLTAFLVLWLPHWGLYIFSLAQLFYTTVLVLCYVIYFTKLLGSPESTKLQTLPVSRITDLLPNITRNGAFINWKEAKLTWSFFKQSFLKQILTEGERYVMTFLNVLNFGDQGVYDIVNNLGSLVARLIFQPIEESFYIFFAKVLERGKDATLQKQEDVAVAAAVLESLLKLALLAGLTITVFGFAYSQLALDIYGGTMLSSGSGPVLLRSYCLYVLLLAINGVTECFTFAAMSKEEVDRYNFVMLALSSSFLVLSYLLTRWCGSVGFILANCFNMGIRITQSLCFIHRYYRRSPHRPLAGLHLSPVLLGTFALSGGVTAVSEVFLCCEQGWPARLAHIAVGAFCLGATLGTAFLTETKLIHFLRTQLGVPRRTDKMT
UniProt O00287: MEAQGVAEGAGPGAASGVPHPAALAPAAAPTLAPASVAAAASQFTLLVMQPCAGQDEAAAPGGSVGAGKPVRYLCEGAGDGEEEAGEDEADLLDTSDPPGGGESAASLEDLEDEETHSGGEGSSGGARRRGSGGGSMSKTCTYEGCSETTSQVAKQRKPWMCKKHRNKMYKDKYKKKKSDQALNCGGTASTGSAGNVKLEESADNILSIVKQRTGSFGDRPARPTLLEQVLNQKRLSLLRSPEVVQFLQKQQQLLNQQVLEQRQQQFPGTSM
UniProt Q15283: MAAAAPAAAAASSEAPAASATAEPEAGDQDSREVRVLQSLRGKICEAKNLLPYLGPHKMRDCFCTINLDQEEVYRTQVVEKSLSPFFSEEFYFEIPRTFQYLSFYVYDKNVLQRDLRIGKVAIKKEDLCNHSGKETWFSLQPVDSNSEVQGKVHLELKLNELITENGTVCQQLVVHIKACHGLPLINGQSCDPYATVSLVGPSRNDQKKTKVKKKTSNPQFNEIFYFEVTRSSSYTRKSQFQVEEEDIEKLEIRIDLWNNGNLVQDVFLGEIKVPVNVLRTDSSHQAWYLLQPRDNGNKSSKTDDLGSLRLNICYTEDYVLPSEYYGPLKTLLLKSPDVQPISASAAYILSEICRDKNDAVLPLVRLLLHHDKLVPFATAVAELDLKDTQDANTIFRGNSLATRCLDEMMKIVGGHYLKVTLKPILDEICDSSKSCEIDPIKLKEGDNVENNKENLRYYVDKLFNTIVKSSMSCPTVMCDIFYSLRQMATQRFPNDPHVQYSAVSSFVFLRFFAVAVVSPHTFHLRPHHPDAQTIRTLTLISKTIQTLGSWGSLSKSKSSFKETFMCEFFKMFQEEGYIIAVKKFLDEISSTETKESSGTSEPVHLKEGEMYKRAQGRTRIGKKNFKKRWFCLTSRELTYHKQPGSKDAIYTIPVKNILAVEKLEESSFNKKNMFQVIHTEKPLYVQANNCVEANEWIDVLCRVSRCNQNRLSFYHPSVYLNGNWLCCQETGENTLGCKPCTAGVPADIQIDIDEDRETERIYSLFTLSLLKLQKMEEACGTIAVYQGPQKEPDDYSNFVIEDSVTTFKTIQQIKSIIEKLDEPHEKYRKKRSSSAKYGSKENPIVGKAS
UniProt Q9BTD8: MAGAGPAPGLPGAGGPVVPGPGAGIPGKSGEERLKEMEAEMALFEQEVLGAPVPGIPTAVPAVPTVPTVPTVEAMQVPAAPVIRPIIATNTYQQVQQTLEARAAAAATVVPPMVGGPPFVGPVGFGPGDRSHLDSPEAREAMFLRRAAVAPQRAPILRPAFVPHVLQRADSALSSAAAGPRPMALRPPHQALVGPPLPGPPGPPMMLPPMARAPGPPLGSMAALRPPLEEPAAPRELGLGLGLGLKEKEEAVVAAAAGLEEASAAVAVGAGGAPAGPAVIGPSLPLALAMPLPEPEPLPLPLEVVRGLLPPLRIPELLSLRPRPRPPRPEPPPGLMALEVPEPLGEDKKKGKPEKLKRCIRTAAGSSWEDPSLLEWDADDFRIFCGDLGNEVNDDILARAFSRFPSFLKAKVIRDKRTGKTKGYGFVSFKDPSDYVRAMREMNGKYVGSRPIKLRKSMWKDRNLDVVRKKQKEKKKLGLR
UniProt P20936: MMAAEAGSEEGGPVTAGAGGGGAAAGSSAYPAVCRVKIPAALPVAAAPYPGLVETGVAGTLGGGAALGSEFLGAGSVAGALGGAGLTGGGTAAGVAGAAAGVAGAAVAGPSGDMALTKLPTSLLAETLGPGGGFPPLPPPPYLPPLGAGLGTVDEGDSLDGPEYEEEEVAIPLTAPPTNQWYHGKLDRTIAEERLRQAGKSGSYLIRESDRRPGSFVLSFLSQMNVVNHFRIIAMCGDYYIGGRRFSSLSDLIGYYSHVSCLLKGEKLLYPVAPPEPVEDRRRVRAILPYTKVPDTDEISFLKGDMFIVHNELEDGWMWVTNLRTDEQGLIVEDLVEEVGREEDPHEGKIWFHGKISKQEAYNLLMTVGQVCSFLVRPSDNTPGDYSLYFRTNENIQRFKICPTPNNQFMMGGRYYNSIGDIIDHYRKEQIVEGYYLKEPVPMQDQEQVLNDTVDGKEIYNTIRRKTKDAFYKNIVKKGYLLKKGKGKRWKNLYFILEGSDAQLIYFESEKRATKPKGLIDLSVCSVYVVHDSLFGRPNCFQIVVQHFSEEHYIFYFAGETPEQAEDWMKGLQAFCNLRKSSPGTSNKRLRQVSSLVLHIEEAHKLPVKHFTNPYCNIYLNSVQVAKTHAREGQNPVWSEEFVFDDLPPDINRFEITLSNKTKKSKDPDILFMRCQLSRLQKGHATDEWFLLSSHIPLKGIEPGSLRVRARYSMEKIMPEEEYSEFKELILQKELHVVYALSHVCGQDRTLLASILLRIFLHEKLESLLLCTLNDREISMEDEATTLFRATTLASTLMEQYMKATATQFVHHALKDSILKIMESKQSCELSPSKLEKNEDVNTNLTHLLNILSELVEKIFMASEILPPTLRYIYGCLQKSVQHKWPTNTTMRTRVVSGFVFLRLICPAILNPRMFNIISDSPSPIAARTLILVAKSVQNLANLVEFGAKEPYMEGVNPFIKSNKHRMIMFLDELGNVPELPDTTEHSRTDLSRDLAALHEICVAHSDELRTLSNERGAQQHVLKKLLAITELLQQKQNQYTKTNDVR

The targets below were run with C[C@H](C1=CC=C(C=C1)C(=O)NC2=C3C=CNC3=NC=C2)N (assay: log2 fold change, soluble protein after heating vs DMSO (PISA); higher = thermal stabilisation; K562 lysate, 10 uM; active = over 0.2 and 3.5 SD of the protein, either way, in both replicates (recomputed)).
Method in brief: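 Log-two fold change in thermal stability relative to solvent controls is reported from duplicates. For each sample, crude K562 extract from dounce-homogenised pellets in PBS pH 7.4 with 1 mM MgCl2, at 1 mg/mL protein, was treated with 10 μM compound for 30 min. Aliquots heated for 3 min across 48°C-58°C were pooled, brought to 0.5% NP-40 at 4°C and cleared at 21,000xg for 90 min. The supernatant was quantified by TMTpro 16plex LC-MS/MS with channel sums equalised.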

log2 fold change, inactive:
RBL1 (UniProt P28749) -0.003
RBBP4 (UniProt Q09028) -0.102
RCOR1 (UniProt Q9UKL0) -0.083
RBM33 (UniProt Q96EV2) 0.128
RFX1 (UniProt P22670) -0.052
RBM28 (UniProt Q9NW13) -0.005
RAVER1 (UniProt E9PAU2) 0.018
RCSD1 (UniProt Q6JBY9) -0.018
RBM39 (UniProt Q14498) -0.109
RFT1 (UniProt Q96AA3) 0.006
RENBP (UniProt P51606) -0.027
RECQL5 (UniProt O94762) 0.084
RELN (UniProt P78509) -0.104
RFXAP (UniProt O00287) -0.073
RASA3 (UniProt Q14644) -0.049
REPS1 (UniProt Q96D71) -0.051
RBM3 (UniProt P98179) 0.029
RCN3 (UniProt Q96D15) -0.018
RASA2 (UniProt Q15283) -0.007
RFESD isoform 2 (UniProt Q8TAC1) 0.004
RBM42 (UniProt Q9BTD8) 0.026
RASA1 (UniProt P20936) 0.01
RBMX (UniProt P38159) 0.011
RCOR3 isoform 3 (UniProt Q9P2K3) 0.014

Fetched one by one from the entries so far (two):
log2 fold change, inactive:
RASA2 (UniProt Q15283) -0.007
RASA1 (UniProt P20936) 0.01
